Laboratory results as given in the supplement of paper PMC8728848.
The list shows a part of the results.

Legend:
Experiment in all cases: glycan array binding signal (z-score within array); higher = stronger binding
Conditions in all cases: glycan notation: IUPAC condensed, linker removed
[1] = target: Fuc(a1-2)[GalNAc(a1-3)]Gal(b1-4)GlcNAc
In short: (§1)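 The binding signal is a Z-score computed within each array. Data were drawn from 3228 arrays in the Consortium for Functional Glycomics database, restricted to those with a known protein sequence. Scores were averaged over arrays of the same protein sequence at different concentrations or buffers, and over linkers, and negative values can be taken as non-binding.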

[2] = target: Fuc(a1-2)[GalNAc(a1-3)]Gal(b1-4)GlcNAc(b1-2)Man(a1-3)[GalNAc(a1-3)[Fuc(a1-2)]Gal(b1-4)GlcNAc(b1-2)Man(a1-6)]Man(b1-4)GlcNAc(b1-4)GlcNAc
In short: as §1

[3] = target: Fuc(a1-2)[GalNAc(a1-3)]Gal(b1-4)GlcNAc(b1-3)Gal(b1-4)GlcNAc
In short: as §1

[4] = target: Fuc(a1-2)[GalNAc(a1-3)]Gal(b1-4)GlcNAc(b1-3)Gal(b1-4)GlcNAc(b1-3)Gal(b1-4)GlcNAc
In short: as §1

[5] = target: Fuc(a1-2)[GalNAc(a1-3)]Gal(b1-4)[Fuc(a1-3)]GlcNAc
In short: as §1

[6] = target: Fuc(a1-2)[GalNAc(a1-4)]Gal(b1-4)GlcNAc
In short: as §1

[7] = target: Fuc(a1-2)[GalNAc(b1-3)]Gal
In short: as §1

[8] = target: Fuc(a1-3)GlcNAc
In short: as §1

[9] = target: Fuc(a1-3)[Gal(b1-4)]Glc6S
In short: as §1

[10] = target: Fuc(a1-3)[Gal(b1-4)]GlcNAc
In short: as §1

[11] = target: Fuc(a1-3)[Gal(b1-4)]GlcNAc(b1-2)Man(a1-3)[Fuc(a1-3)[Gal(b1-4)]GlcNAc(b1-2)Man(a1-6)]Man(b1-4)GlcNAc(b1-4)GlcNAc
In short: as §1

[12] = target: Fuc(a1-3)[Gal(b1-4)]GlcNAc(b1-2)Man(a1-6)[Gal(b1-4)GlcNAc(b1-2)Man(a1-3)]Man(b1-4)GlcNAc(b1-4)GlcNAc
In short: as §1

[13] = target: Fuc(a1-3)[Gal(b1-4)]GlcNAc(b1-3)Gal(b1-3)[Fuc(a1-4)]GlcNAc
In short: as §1

[14] = target: Fuc(a1-3)[Gal(b1-4)]GlcNAc(b1-4)Gal(b1-4)[Fuc(a1-3)]GlcNAc
In short: as §1

[15] = target: Fuc(a1-3)[Gal(b1-4)]GlcNAc(b1-4)Gal(b1-4)[Fuc(a1-3)]GlcNAc(b1-4)Gal(b1-4)[Fuc(a1-3)]GlcNAc
In short: as §1

[16] = target: Fuc(a1-3)[Gal(b1-4)]GlcNAc6S
In short: as §1

[17] = target: Fuc(a1-3)[Gal3S(b1-4)]Glc6S
In short: as §1

[18] = target: Fuc(a1-3)[Gal3S(b1-4)]GlcNAc
In short: as §1

[19] = target: Fuc(a1-3)[Gal3S(b1-4)]GlcNAc6S
In short: as §1

[20] = target: Fuc(a1-3)[GalNAc(b1-4)]GlcNAc
In short: as §1

[21] = target: Fuc(a1-3)[Neu5Ac(a2-3)]Gal(b1-4)GlcNAc(b1-3)GalNAc
In short: as §1

[22] = target: Fuc(a1-4)GlcNAc
In short: as §1

[23] = target: Fuc(b1-3)GlcNAc
In short: as §1

[24] = target: Gal(a1-2)Gal
In short: as §1

[25] = target: Gal(a1-3)Gal
In short: as §1

[26] = target: Gal(a1-3)Gal(b1-3)GlcNAc
In short: as §1

[27] = target: Gal(a1-3)Gal(b1-4)Glc
In short: as §1

[28] = target: Gal(a1-3)Gal(b1-4)GlcNAc
In short: as §1

[29] = target: Gal(a1-3)Gal(b1-4)[Fuc(a1-3)]GlcNAc
In short: as §1

[30] = target: Gal(a1-3)Gal(b1-4)[Fuc(a1-3)]GlcNAc(b1-2)Man(a1-3)[Gal(a1-3)Gal(b1-4)[Fuc(a1-3)]GlcNAc(b1-2)Man(a1-6)]Man(b1-4)GlcNAc(b1-4)GlcNAc
In short: as §1

[31] = target: Gal(a1-3)GalNAc
In short: as §1

[32] = target: Gal(a1-3)[Gal(a1-4)]Gal(b1-4)GlcNAc
In short: as §1

[33] = target: Gal(a1-4)Gal(b1-4)Glc
In short: as §1

[34] = target: Gal(a1-4)Gal(b1-4)GlcNAc
In short: as §1

[35] = target: Gal(a1-4)Gal(b1-4)GlcNAc(b1-3)Gal(b1-4)Glc
In short: as §1

[36] = target: Gal(a1-4)GlcNAc
In short: as §1

[37] = target: Gal(a1-6)Glc
In short: as §1

[38] = target: Gal(b1-2)Gal
In short: as §1

B1: PP2A1 (Arabidopsis thaliana) (protein)
chain: MFRNQDSKYLIPVQKEAPPVTTLPMKASTVKSPHNCEAILRDADPPISLSSVNLSEQLRSGVFLKPKKQIKYWVDERNSNCFMLFAKNLSITWSDDVNYWTWFTEKESPNENVEAVGLKNVCWLDITGKFDTRNLTPGIVYEVVFKVKLEDPAYGWDTPVNLKLVLPNGKEKPQEKKVSLRELPRYKWVDVRVGEFVPEKSAAGEITFSMYEHAAGVWKKGLSLKGVAIRPKQHHHHHH
glycan array binding signal (z-score) [1]: -0.411
glycan array binding signal (z-score) [2]: 0.573
glycan array binding signal (z-score) [3]: -0.018
glycan array binding signal (z-score) [4]: 0.059
glycan array binding signal (z-score) [5]: -0.253
glycan array binding signal (z-score) [6]: -0.398
glycan array binding signal (z-score) [7]: -0.409
glycan array binding signal (z-score) [8]: -0.591
glycan array binding signal (z-score) [9]: -0.117
glycan array binding signal (z-score) [10]: -0.005
glycan array binding signal (z-score) [11]: -0.241
glycan array binding signal (z-score) [12]: -1.1
glycan array binding signal (z-score) [13]: -0.241
glycan array binding signal (z-score) [14]: -0.014
glycan array binding signal (z-score) [15]: -0.187
glycan array binding signal (z-score) [16]: -0.097
glycan array binding signal (z-score) [17]: 0.302
glycan array binding signal (z-score) [18]: -0.017
glycan array binding signal (z-score) [19]: 0.583
glycan array binding signal (z-score) [20]: -0.418
glycan array binding signal (z-score) [21]: -0.286
glycan array binding signal (z-score) [22]: -0.047
glycan array binding signal (z-score) [23]: -0.251
glycan array binding signal (z-score) [24]: -0.291
glycan array binding signal (z-score) [25]: -0.282
glycan array binding signal (z-score) [26]: -0.586
glycan array binding signal (z-score) [27]: -0.621
glycan array binding signal (z-score) [28]: -0.365
glycan array binding signal (z-score) [29]: -0.34
glycan array binding signal (z-score) [30]: -0.011
glycan array binding signal (z-score) [31]: -0.032
glycan array binding signal (z-score) [32]: 0.221
glycan array binding signal (z-score) [33]: -0.181
glycan array binding signal (z-score) [34]: -0.01
glycan array binding signal (z-score) [35]: -0.305
glycan array binding signal (z-score) [36]: -0.224
glycan array binding signal (z-score) [37]: 0.289
glycan array binding signal (z-score) [38]: -0.215
